Results: the supplement of paper PMC8732350
Structures can show the parent of a compound that is named as a salt. ± gives the standard deviation of the averaged measurements. The list shows a part of the results. Single values are uncertain here, since repeats match poorly.

These compounds were tested on A549 (assay: surface PD-L1 immunofluorescence intensity relative to IFN-gamma-only control (ratio); higher = more PD-L1 expression). Conditions: 10 µM; exposure time 24 h; IFN-gamma 100 ng/mL.

| SMILES | surface PD-L1 immunofluorescence intensity |
| --- | --- |
| CCCCC(CC)CN1CN(CC(CC)CCCC)CC(C)(N)C1 (configuration not stated) [Hexetidine] | 1.03 |
| COc1cc2c(cc1OC)C(=O)C(CC1CCN(Cc3ccccc3)CC1)C2 (configuration not stated) [Donepezil HCl (Aricept)] | 0.781 |
| O=C(CCCN1CCC(O)(c2ccc(Br)cc2)CC1)c1ccc(F)cc1 [Bromperidol] | 1.09 |
| CNCC[C@H](Oc1cccc2ccccc12)c1cccs1 [Duloxetine HCl (Cymbalta)] | 1.13 |
| CO[C@@]1(NC(=O)Cc2cccs2)C(=O)N2C(C(=O)O)=C(COC(N)=O)CS[C@@H]21 [Cefoxitin sodium salt] | 0.967 |
| C[C@]12CC[C@H]3C(=CCc4cc(O)ccc43)[C@@H]1CCC2=O [Equilin] | 0.958 |
| CNC(=O)[C@H]1O[C@@H](n2cnc3c(NCc4cccc(I)c4)ncnc32)[C@H](O)[C@@H]1O | 0.99 |
| C=C[C@H]1CN2CC[C@H]1C[C@@H]2[C@@H](O)c1ccnc2ccc(OC)cc12 [Quinidine hydrochloride monohydrate] | 1.01 |
| NC(=O)N1c2ccccc2CC(O)c2ccccc21 (configuration not stated) [Licarbazepine] | 1.01 |
| Cc1cccc(C)c1NC(=O)C1CCCCN1C (configuration not stated) [Mepivacaine hydrochloride] | 0.951 |
| CCc1nc(-c2cccc(C)c2)c(-c2ccnc(NC(=O)c3ccccc3)c2)s1 | 0.97 ± 0.014 |
| CN1C(C(=O)Nc2ccccn2)=C(O)c2sccc2S1(=O)=O [Tenoxicam] | 0.945 |
| Cc1ncc([N+](=O)[O-])n1CC(O)CCl (configuration not stated) [Ornidazole] | 0.971 |
| O=C(CCCCCCC(=O)NO)NO [Suberoyl bis-hydroxamic acid] | 0.968 |
| Cn1c(=O)c2[nH]cnc2n(C)c1=O [Aminophylline] | 1.06 |
| CS(=O)(=O)c1ccc(C2=C(c3ccccc3)C(=O)OC2)cc1 [Rofecoxib] | 0.996 |
| CN(C)CCC=C1c2ccccc2CCc2ccccc21 [Amitryptiline hydrochloride] | 0.851 |
| Cc1ccnc2c1NC(=O)c1cccnc1N2C1CC1 [Nevirapine (Viramune)] | 1.09 |
| Cc1[nH]c(=O)c(C#N)cc1-c1ccncc1 [Milrinone] | 1.06 |
| O=c1cc(N2CCNCC2)oc2c(-c3ccccc3)cccc12 | 1.09 |
| COc1cc2ncc(-c3ccccc3)nc2cc1OC [Tyrphostin AG 1296 (AG 1296)] | 0.955 |

| SMILES | surface PD-L1 immunofluorescence intensity |
| --- | --- |
| COc1ccc(C(=O)Nc2sc3c(c2C(N)=O)CCCC3)cc1OC | 0.97744 ± 0.00031 |
| CC(N)(Cc1ccc(O)c(O)c1)C(=O)O [L-(-)- _-Methyldopa] | 1.06 |
| O=NO [Sodium Nitrite] | 1.09 |
| CN(C)CC/C=C1\c2ccccc2CSc2ccccc21 [Dosulepin hydrochloride] | 0.977 |
| COc1cc(Nc2ncc(F)c(Nc3ccc4c(n3)NC(=O)C(C)(C)O4)n2)cc(OC)c1OC | 0.784 |
| CC(C)(Oc1ccc(Cl)cc1)C(=O)O [Clofibric acid] | 0.978 ± 0.029 |
| CC(=O)[C@@]1(O)CC[C@H]2[C@@H]3CCC4=CC(=O)CCC4=C3[C@@H](c3ccc(N(C)C)cc3)C[C@@]21C [Ulipristal] | 0.997 |
| CC(C)(S)[C@@H](N)C(=O)O [Penicillamine] | 0.955 |
| Cc1cc(C(=O)NNCc2ccccc2)no1 [Isocarboxazid] | 0.93 |
| CO[C@H]1C[C@H](O[C@H]2[C@H](C)[C@@H](O[C@@H]3O[C@H](C)C[C@H](N(C)C)[C@H]3OC(C)=O)[C@@H](C)C[C@@]3(CO3)C(=O)[C@H](C)[C@@H](OC(C)=O)[C@@H](C)[C@@H](C)OC(=O)[C@@H]2C)O[C@@H](C)[C@@H]1OC(C)=O [Troleandomycin] | 0.833 |
| COc1ccc(-c2ccc(=N)n(CCCC(=O)O)n2)cc1 [Gabazine bromide] | 1.02 |
| COc1ccc(-c2ccc(=N)n(CCCC(=O)O)n2)cc1 | 1 |
| CCCCCCCCCCC[C@@H](C[C@@H]1OC(=O)[C@H]1CCCCCC)OC(=O)[C@H](CC(C)C)NC=O [Orlistat (Alli, Xenical)] | 0.929 |
| CCCCCCCCCCC[C@@H](C[C@@H]1OC(=O)[C@H]1CCCCCC)OC(=O)[C@H](CC(C)C)NC=O [Orlistat] | 1.01 |
| CC1(C)CCC(CN2CCN(c3ccc(C(=O)NS(=O)(=O)c4ccc(NCC5CCOCC5)c([N+](=O)[O-])c4)c(Oc4cnc5[nH]ccc5c4)c3)CC2)=C(c2ccc(Cl)cc2)C1 | 1.12 |
| Cn1c(=O)c2c(ncn2CC(=O)O)n(C)c1=O [Acefylline] | 0.978 |
| Nc1nc(N)c2nc(-c3cccc(O)c3)cnc2n1 | 1.0217 ± 0.00086 |
| CCN1C(=O)NC(c2ccccc2)C1=O (configuration not stated) [Ethotoin] | 1 |
| CN1CCCC(CC2c3ccccc3Sc3ccccc32)C1 (configuration not stated) [Metixene hydrochloride] | 0.939 |
| COc1ccccc1N1CCN(CC(O)COc2cccc3ccccc23)CC1 (configuration not stated) [Naftopidil hydrochloride] | 0.992 |
| COc1ccccc1N1CCN(CC(O)COc2cccc3ccccc23)CC1 (configuration not stated) [Naftopidil dihydrochloride] | 0.901 |

| SMILES | surface PD-L1 immunofluorescence intensity |
| --- | --- |
| CN1CCC(=C2c3ccccc3CC(=O)c3sccc32)CC1 [Ketotifen fumarate] | 0.937 ± 0.037 |
| O=C(O)CC[C@H]1CC[C@@](c2cc(F)ccc2F)(S(=O)(=O)c2ccc(Cl)cc2)CC1 | 0.864 |
| COc1ccc2c(c1)N(C[C@H](C)CN(C)C)c1ccccc1S2 [Methotrimeprazine maleat salt] | 0.877 |
| CC[C@H](CC[C@@H](C)[C@H]1CC[C@H]2[C@@H]3CC=C4C[C@@H](O)CC[C@]4(C)[C@H]3CC[C@]12C)C(C)C [?-Sitosterol] | 1.03 |
| CCCN(CCC)C(=O)C(CCC(=O)O)NC(=O)c1ccccc1 (configuration not stated) [Proglumide] | 0.862 |
| COc1cc(OC)c(C(=O)CCCN2CCCC2)c(OC)c1 [Buflomedil hydrochloride] | 0.957 |
| N#CC(c1ccc(Cl)cc1)c1c(Cl)cc(-n2ncc(=O)[nH]c2=O)cc1Cl (configuration not stated) [Diclazuril] | 0.932 |
| O=c1ccc2ccc(O)c(O)c2o1 [Daphnetin] | 0.93 |
| Cc1ccc(NC(=O)C(C)C)cc1C1CCN(Cc2ccc(Oc3ccc(F)c(F)c3)cc2)CC1 | 1.08 |
| Nc1ccc(-c2nc3ccc(-c4nc5ccc(N)cc5[nH]4)cc3[nH]2)cc1 | 0.999 |
| Nc1c(Br)cc(Br)cc1CN[C@H]1CC[C@H](O)CC1 [Ambroxol] | 0.974 |
| Nc1c(Br)cc(Br)cc1CN[C@H]1CC[C@H](O)CC1 [Ambroxol hydrochloride] | 1.03 ± 0.058 |
| Cn1ccnc1S [Methimazole (Tapazole, Northyx)] | 1.12 |
| Cn1ccnc1S [Methimazole] | 0.968 |
| CC1Nc2ccc(Cl)cc2S(=O)(=O)N1 (configuration not stated) | 1.02 |
| CC(C)(Sc1cc(C(C)(C)C)c(O)c(C(C)(C)C)c1)Sc1cc(C(C)(C)C)c(O)c(C(C)(C)C)c1 [Probucol] | 0.9031 ± 0.0067 |
| O=C1Cc2cc(CCN3CCN(c4nsc5ccccc45)CC3)c(Cl)cc2N1 [Ziprasidone  Hydrochloride] | 0.99 |
| CC(C)/N=c1\cc2n(-c3ccc(Cl)cc3)c3ccccc3nc-2cc1Nc1ccc(Cl)cc1 [Clofazimine] | 1.01 |
| CCN[C@H]1C[C@H](C)S(=O)(=O)c2sc(S(N)(=O)=O)cc21 [Dorzolamide hydrochloride] | 0.978 |
| CCN[C@H]1C[C@H](C)S(=O)(=O)c2sc(S(N)(=O)=O)cc21 [Dorzolamide HCl] | 0.87 |
| CCOC(=O)[C@]12CC1/C(=N\O)c1ccccc1O2 (some centres not stated) | 1.07 |

A different layout for part of the listing above.
SMILES	surface PD-L1 immunofluorescence intensity
CC1(C)CCC(CN2CCN(c3ccc(C(=O)NS(=O)(=O)c4ccc(NCC5CCOCC5)c([N+](=O)[O-])c4)c(Oc4cnc5[nH]ccc5c4)c3)CC2)=C(c2ccc(Cl)cc2)C1	1.12
Cn1c(=O)c2c(ncn2CC(=O)O)n(C)c1=O [Acefylline]	0.978
Nc1nc(N)c2nc(-c3cccc(O)c3)cnc2n1	1.0217 ± 0.00086
CCN1C(=O)NC(c2ccccc2)C1=O (configuration not stated) [Ethotoin]	1
CN1CCCC(CC2c3ccccc3Sc3ccccc32)C1 (configuration not stated) [Metixene hydrochloride]	0.939
COc1ccccc1N1CCN(CC(O)COc2cccc3ccccc23)CC1 (configuration not stated) [Naftopidil hydrochloride]	0.992
COc1ccccc1N1CCN(CC(O)COc2cccc3ccccc23)CC1 (configuration not stated) [Naftopidil dihydrochloride]	0.901
CN1CCC(=C2c3ccccc3CC(=O)c3sccc32)CC1 [Ketotifen fumarate]	0.937 ± 0.037
O=C(O)CC[C@H]1CC[C@@](c2cc(F)ccc2F)(S(=O)(=O)c2ccc(Cl)cc2)CC1	0.864
COc1ccc2c(c1)N(C[C@H](C)CN(C)C)c1ccccc1S2 [Methotrimeprazine maleat salt]	0.877
CC[C@H](CC[C@@H](C)[C@H]1CC[C@H]2[C@@H]3CC=C4C[C@@H](O)CC[C@]4(C)[C@H]3CC[C@]12C)C(C)C [?-Sitosterol]	1.03
CCCN(CCC)C(=O)C(CCC(=O)O)NC(=O)c1ccccc1 (configuration not stated) [Proglumide]	0.862
COc1cc(OC)c(C(=O)CCCN2CCCC2)c(OC)c1 [Buflomedil hydrochloride]	0.957
N#CC(c1ccc(Cl)cc1)c1c(Cl)cc(-n2ncc(=O)[nH]c2=O)cc1Cl (configuration not stated) [Diclazuril]	0.932
O=c1ccc2ccc(O)c(O)c2o1 [Daphnetin]	0.93
Cc1ccc(NC(=O)C(C)C)cc1C1CCN(Cc2ccc(Oc3ccc(F)c(F)c3)cc2)CC1	1.08
Nc1ccc(-c2nc3ccc(-c4nc5ccc(N)cc5[nH]4)cc3[nH]2)cc1	0.999
Nc1c(Br)cc(Br)cc1CN[C@H]1CC[C@H](O)CC1 [Ambroxol]	0.974
Nc1c(Br)cc(Br)cc1CN[C@H]1CC[C@H](O)CC1 [Ambroxol hydrochloride]	1.03 ± 0.058
Cn1ccnc1S [Methimazole (Tapazole, Northyx)]	1.12
Cn1ccnc1S [Methimazole]	0.968
CC1Nc2ccc(Cl)cc2S(=O)(=O)N1 (configuration not stated)	1.02
CC(C)(Sc1cc(C(C)(C)C)c(O)c(C(C)(C)C)c1)Sc1cc(C(C)(C)C)c(O)c(C(C)(C)C)c1 [Probucol]	0.9031 ± 0.0067
O=C1Cc2cc(CCN3CCN(c4nsc5ccccc45)CC3)c(Cl)cc2N1 [Ziprasidone  Hydrochloride]	0.99
CC(C)/N=c1\cc2n(-c3ccc(Cl)cc3)c3ccccc3nc-2cc1Nc1ccc(Cl)cc1 [Clofazimine]	1.01

(listing goes on)

| SMILES | surface PD-L1 immunofluorescence intensity |
| --- | --- |
| O=c1cc(-c2ccc(O)c(O)c2)oc2cc(O)cc(O)c12 [Luteolin] | 1.07 |
| CC(=O)Nc1ccc(NC(=S)NC(=O)c2ccc(C(C)(C)C)cc2)cc1 [Tenovin-1] | 1 |
| CC(C)(C(=O)c1cccnc1)c1cccnc1 [Metyrapone] | 1.05 |
| NCCCCNCCCN [Spermidine] | 0.999 |
| NCCCCNCCCN [Spermidine trihydrochloride] | 0.982 |
| Nc1ncn([C@H]2C[C@H](O)[C@@H](CO)O2)c(=O)n1 [Decitabine] | 0.928 |
| CN1CC(=O)NC1=N [Creatinine] | 1 |
| CSCC[C@H](NC=O)C(=O)N[C@@H](CC(=O)O)C(=O)NCC(=O)N[C@@H](CS)C(=O)N[C@@H](CCC(=O)O)C(=O)N[C@@H](CC(C)C)C(=O)O | 1 |
| CCC(Cc1c(I)cc(I)c(N)c1I)C(=O)O (configuration not stated) [Iopanoic acid] | 1.02 |
| CCC(NC(C)C)C(O)c1ccc(O)c(O)c1 (configuration not stated) [Isoetharine mesylate salt] | 0.993 |
| CN1C2=CC(=O)/C(=N\NC(N)=O)C=C2CC1S(=O)(=O)O (configuration not stated) [Carbazochrome sodium sulfonate] | 0.963 |
| CNC(CC(=O)O)C(=O)O [NMDA (N-Methyl-D-aspartic acid)] | 1 |
| CC(=O)OCCNC(=O)c1cccnc1 [N-[2-(Acetoxy)ethyl]-3-pyridinecarboxamide] | 0.95 |
| C[C@H](NC(=O)Cc1cc(F)cc(F)c1)C(=O)N[C@H](C(=O)OC(C)(C)C)c1ccccc1 | 1.04 |
| CN1CCc2cccc3c2[C@H]1Cc1ccc(O)c(O)c1-3 [(R)-(-)-Apomorphine hydrochloride] | 1.03 |
| CN1CCN(C2=Cc3ccccc3Oc3ccc(Cl)cc32)CC1 | 1.06 |
| C[C@H](NC(=O)[C@@H](O)c1cc(F)cc(F)c1)C(=O)N[C@@H]1C(=O)N(C)c2ccccc2-c2ccccc21 | 1.04 |
| CO[C@@]1(NC(=O)CSCC#N)C(=O)N2C(C(=O)O)=C(CSc3nnnn3C)CS[C@@H]21 [Cefmetazole sodium salt] | 1.04 |
| C[C@@H]1[C@H](O)[C@@H](C)/C=C/C=C/C=C/C=C/C=C/C=C/C=C/[C@H](O[C@@H]2O[C@H](C)[C@@H](O)[C@H](N)[C@@H]2O)C[C@@H]2O[C@](O)(C[C@@H](O)C[C@@H](O)[C@H](O)CC[C@@H](O)C[C@@H](O)CC(=O)O[C@H]1C)C[C@H](O)[C@H]2C(=O)O [Amphotericin B] | 1.02 |
